Library screening results

Protein sequences, listed by entry. Tags and fused reporters are not part of them.
UniProt E9BF75, entry or part of it: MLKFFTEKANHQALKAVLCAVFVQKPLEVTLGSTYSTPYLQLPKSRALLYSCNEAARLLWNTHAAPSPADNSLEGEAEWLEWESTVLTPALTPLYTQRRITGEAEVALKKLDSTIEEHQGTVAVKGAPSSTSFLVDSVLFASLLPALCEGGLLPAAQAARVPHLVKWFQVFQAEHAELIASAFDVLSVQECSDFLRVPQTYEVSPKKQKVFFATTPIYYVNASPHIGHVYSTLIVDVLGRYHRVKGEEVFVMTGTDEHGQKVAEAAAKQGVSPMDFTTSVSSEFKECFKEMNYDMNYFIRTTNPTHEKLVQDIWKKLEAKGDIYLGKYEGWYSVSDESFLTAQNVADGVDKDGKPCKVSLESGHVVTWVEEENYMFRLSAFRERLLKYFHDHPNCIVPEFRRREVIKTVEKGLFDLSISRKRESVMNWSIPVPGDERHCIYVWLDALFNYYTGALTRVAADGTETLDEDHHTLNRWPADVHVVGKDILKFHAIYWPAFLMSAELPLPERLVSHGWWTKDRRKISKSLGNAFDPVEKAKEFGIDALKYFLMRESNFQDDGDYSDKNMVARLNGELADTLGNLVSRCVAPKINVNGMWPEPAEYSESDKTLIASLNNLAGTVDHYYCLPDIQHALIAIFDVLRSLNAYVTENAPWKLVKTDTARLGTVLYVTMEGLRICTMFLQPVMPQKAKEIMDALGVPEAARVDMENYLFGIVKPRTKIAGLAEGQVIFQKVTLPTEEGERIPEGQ

A: 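Primary screen of methionyl-tRNA synthetase; the read-out is not stated. Target: Methionyl-tRNA synthetase (putative), Leishmania donovani (UniProt E9BF75). The test concentration is not given. The values are filed as inhibition. Size under these conditions: about 68,000 compounds, about 24 of them at 50% or above in at least one test.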
B: 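Assay on Mycobacterium tuberculosis, filed only as a heat shock assay from Cornell; the read-out is not stated. The concentration is filed as 10 mM, unlikely as a test dose, so the dose is not known. Direction is inferred from retests: higher values go with stronger inhibition. About 69,000 compounds were tested under these conditions; 1.4% (about 930) showed 50% or more at least once.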

All values are in %.
The controls that fix the scale are not given in the record; negative values are as filed.
The compounds are a random part of those screened.
A dash means the value is not listed here; it may have been measured.

SMILES,A,B
O=C(c1c[nH]cn1)N1CCCn2c(CN3CCCCC3)nnc2C1,10.64%,-
CNC(=O)[C@@]12CCO[C@@H]1CCN(S(=O)(=O)c1cccc(F)c1)C2,9.89%,-
COc1ccc(NC(=O)CCC(C)C)c(N2CCN(C(C)=O)CC2)n1,9.89%,-12.22%
[H][C@@]12C[C@@H](c3nc(C)no3)O[C@]1([H])CN(S(=O)(=O)c1cccc(C)c1)C2,-,10.79%
CCOc1nc2cnccc2n(CC(=O)NCc2ccc(C)cc2)c1=O,5.634%,11.76%
Fc1cccc(CN2CCC(c3noc(-c4ccncc4)n3)CC2)c1F,17.72%,-1.707%
N#Cc1cccc(OCCN2CCCC(c3noc(C4CC4)n3)C2)c1 (stereo not drawn),9.03%,-10.38%
CN(C)CC(=O)N1CCc2cccc(S(=O)(=O)N3CCOCC3)c2C1,8.125%,-34.1%
CC(C)(C)c1ncc2c(n1)CN(C(=O)c1ccncc1)C2,15.5%,-20.68%
CC(C)(C)C(=O)NCCNCc1ccc(Cl)c2cccnc12,14.65%,-2.334%
[H][C@@]12C[C@H](c3nnc(C)o3)CN(S(=O)(=O)CC)[C@]1([H])CCO2,-,-21.6%
[H][C@@]12COC[C@]1(COc1cccnc1)CN(C(=O)c1cocn1)C2,-,75.2%
c1cncc(CN2CCCn3nnc(CN4CCCC4)c3C2)c1,11.38%,-
CSc1[nH]nc(NC(=O)c2ccncc2)c1C#N,9.677%,6.331%
O=c1cc(-c2ccc(F)cc2)nc2n1CCCCC2,6.545%,0.1321%
COc1cccc(CN2CCCCCC2c2cccc(C)c2)c1O (stereo not drawn),11.76%,5.549%
Cc1cnccc1-c1cnn(CCNC(=O)c2ccccn2)c1C1CC1.Cl,-,22.13%
O=C(NCC1CCOCC1)c1cc(-c2ccc3c(c2)CCO3)n[nH]1,7.576%,-1.961%
O=C(O)C(F)(F)F.O=C(O)C(F)(F)F.O=C1NC2(CCN(Cc3cccs3)CC2)CC1c1ccncc1 (stereo not drawn),-,-33.96%
COc1ccc(CN(Cc2ccsc2)CC2CCCO2)cn1 (stereo not drawn),7.588%,-0.006413%
COc1ncc(NCc2ccc(C#N)cc2)cc1C(N)=O,10.34%,1.468%
c1csc(CN2CC3(CCN(Cc4ccsc4)C3)C2)n1,5.926%,-
CC1CCN(CCCNC(=O)Nc2cc3c(cc2Br)OCCO3)CC1,1.63%,-1.507%
O=C(O)C(F)(F)F.[H][C@@]12C[C@H](C(=O)NC)[C@@]([H])(CN(Cc3ccccc3)C1)O2,-,16.15%
Cc1cnn(CC2CCCN2C(=O)c2cccc(F)c2F)c1 (stereo not drawn),24.04%,-18.14%
CCN(CC)Cc1nc2c(o1)CN(C(=O)c1ccc3[nH]ccc3c1)C2.O=CO,-,18.29%
CCOCCN1CCN(Cc2cccc(C(=O)N(C)C)c2)CC1,10.48%,-16.07%
Fc1cccc(-n2ccc(CN3CCCC3Cn3cccn3)n2)c1 (stereo not drawn),13.07%,22.35%
CN(C)c1nccc(C2CCCCN2Cc2cnn3cccnc23)n1 (stereo not drawn),9.206%,8.163%
CN(CCc1ccccn1)S(=O)(=O)N1CCCC1c1ccco1 (stereo not drawn),4.762%,16.77%
O[C@H]1CCN(CC2CCOC2)[C@H]1Cc1ccncc1 (stereo partly drawn),11.59%,-3.068%
O=C1C[C@H]2[C@@H](CCN2C(=O)Cc2cccs2)N1Cc1ccncc1,5.602%,-
CN(Cc1ccncc1)C(=O)c1ccc(F)c(NS(C)(=O)=O)c1,16.67%,22.79%
CC1(Cc2cccnc2)NCCc2[nH]cnc21 (stereo not drawn),0.2545%,-41.98%
CC(=O)N1CCCC2(CCN(C(=O)c3ccc(Cl)c(C(F)(F)F)c3)C2)C1 (stereo not drawn),5.229%,-5.742%
Cc1cnn(CC2CCCCN2C(=O)c2csc(C)n2)c1 (stereo not drawn),14.61%,-3.543%
COCCN(Cc1cccc(C#N)c1)Cc1nnsc1Cl,0.3521%,-16.92%
CCN(Cc1cnn(C)c1)S(=O)(=O)N1CCCC1c1ccco1 (stereo not drawn),12.89%,-2.049%
CNC(=O)c1sc2ncccc2c1C1CCN(C(=O)CCOC)C1 (stereo not drawn),6.977%,-3.275%
CCOC(=O)C(C)Nc1ccc(CCN2CCOCC2)cc1 (stereo not drawn),9.288%,-52.01%
COc1ccc(CNCCc2cc(F)cc3c2OCOC3)cc1OC,15.01%,10.3%
O=C(O)C(F)(F)F.O=S(=O)(C1CC1)N1CCC2(CN(c3ccccn3)C2)C1,-,-21.54%
COCC(=O)N1C[C@H]2CC[C@@]3(N=C(c4ccccc4)NC3=O)[C@H]2C1,8.148%,-
OCC1(O)CCCN(Cc2noc(-c3ccccc3)n2)C1 (stereo not drawn),20.1%,16.58%
Cc1cc(S(C)(=O)=O)c(C)c(S(=O)(=O)NCC2CCC2)c1,4.891%,-22.31%
CC(C)c1nnc2n1CCN(C(=O)c1ccc(-n3cnnc3)cc1)C2,13.89%,-4.405%
COc1ccccc1N1CCC(CNC(=O)N(C)Cc2ccco2)C1 (stereo not drawn),12.94%,2.956%
O=C(NC1CCCC1)C1CCN(c2cc(-n3ccnc3)ncn2)CC1,0.7194%,-7.815%
CC(C)(C)CC(NC(=O)c1nc(=O)[nH][nH]1)c1ccc(F)cc1 (stereo not drawn),13.53%,-11.26%
CC(Cc1ccco1)NC(=O)NCc1ncnn1C (stereo not drawn),14.29%,3.97%
Cc1nc(N2CCN(C(=O)C(C)(C)C)CC2)cc(-n2cnc(C)c2C)n1,4.724%,3.259%
O=S(=O)(NCC1CCN(c2cnccn2)CC1)C1CC1,12.14%,-13.65%
COc1ncccc1CN1CC[C@H]2[C@H]1CCN2CCN(C)C,9.343%,-
CN(C)CC(=O)N1CCC2(CC1)COCCN(c1ncccn1)C2,5.076%,-37.63%
Cc1nc([C@H]2C[C@@H]3CCN(C(=O)c4ccnnc4)C[C@H]3O2)sc1C,17.02%,-
CCc1ccc(C(=O)N2CCC3(CCC(=O)N(CCN(C)C)C3)CC2)[nH]1,10.43%,12.77%
CCc1ccccc1CNC(=O)NCc1cnn(C)c1,16.71%,4.989%
Cc1c[nH]nc1C1CCCN1Cc1ncc[nH]1 (stereo not drawn),10.48%,-
C=C(C)CN1CCN(Cc2cnc(-c3ccc(OC)cc3)nc2)CC1,16.13%,-
Cc1cnn(CC2CCCN2C(=O)c2cc(C)no2)c1 (stereo not drawn),7.874%,6.859%
CCS(=O)(=O)Nc1ccn(Cc2ccc(F)cc2Cl)n1,12.75%,2.912%
NC(=O)N1CCCN(CC(=O)NCCc2c(F)cccc2F)CC1,9.639%,11.75%
O=C(c1cc(Cl)c[nH]1)N(CCCO)Cc1cccnc1,12.64%,6.124%
CCn1cnnc1CNS(=O)(=O)N1CCCC1c1ccc(C)o1 (stereo not drawn),17.23%,10.4%
Fc1cccc(N2CCCC3(CN(Cc4nccs4)CCO3)C2)c1.O=C(O)C(F)(F)F.O=C(O)C(F)(F)F (stereo not drawn),-,0.8431%
COc1cc(CCC(=O)NC2CCN(C)CC2)ccc1OCC(F)(F)F,17.14%,-16.7%
COCCCNC(=O)CCn1nc(C)c2ccccc21,17.01%,2.124%
CS(=O)(=O)N1CC[C@H]2O[C@H](C(=O)NCCc3ccncc3)CC[C@H]21,4.603%,-
Cc1cc2nc(SCC(=O)N3CCOCC3)n(CC(C)C)c(=O)c2[nH]1,7.746%,-4.007%
CC(c1nc(C2CC2)no1)N1CCN(CCOCC(F)(F)F)CC1 (stereo not drawn),11.11%,1.252%
CCC[C@@H]1CN(C(=O)c2c(F)ccc(OC)c2F)C[C@H]1C(=O)O,10.26%,-14.19%
COc1ccc2[nH]cc(C(=O)CNc3nccs3)c2c1,11.86%,-
Cc1cc(=O)[nH]c(CCNC(=O)C(c2ccc(F)cc2)N(C)C)n1 (stereo not drawn),10.5%,-7.988%
O=C(NC[C@H]1OC[C@@H](NC2CCCC2)[C@@H]1O)C1CCCC1,3.051%,-29.68%
Cl.O=C(Cn1c(-c2ccco2)cc2cccnc21)N1CCCC1,-,2.747%
CC1=Nc2c(c(=O)[nH]n2C(C)C)C(c2ccc3c(c2)n(C)c(=O)n3C)S1 (stereo not drawn),16.06%,0.1783%
[H][C@@]12CN(c3cc(OC)ncn3)C[C@H](C(=O)NC3CC3)[C@]1([H])CCO2,-,-42.44%
COc1ccccc1OCCCN1CCNC1=O,18.92%,16.3%
CCCS(=O)(=O)NCC(C)(O)c1ccsc1 (stereo not drawn),20.99%,-2.703%
COc1ccc(Cl)cc1NCc1nc2[nH]c(C)c(C)c(=O)n2n1,14.21%,15.93%
CN(C)c1cc(C2CCCN(C(=O)c3ccc(=O)[nH]n3)C2)ccn1 (stereo not drawn),17.09%,-15.28%

10 of the entries, repeated:

For CN(C)c1nccc(C2CCCCN2Cc2cnn3cccnc23)n1 (stereo not drawn) the result was A: 9.206%; B: 8.163%.
For CNC(=O)c1sc2ncccc2c1C1CCN(C(=O)CCOC)C1 (stereo not drawn) the result was A: 6.977%; B: -3.275%.
For OCC1(O)CCCN(Cc2noc(-c3ccccc3)n2)C1 (stereo not drawn) the result was A: 20.1%; B: 16.58%.
For Cc1cc(=O)[nH]c(CCNC(=O)C(c2ccc(F)cc2)N(C)C)n1 (stereo not drawn) the result was A: 10.5%; B: -7.988%.
For c1csc(CN2CC3(CCN(Cc4ccsc4)C3)C2)n1 the result was A: 5.926%.
For CC(=O)N1CCCC2(CCN(C(=O)c3ccc(Cl)c(C(F)(F)F)c3)C2)C1 (stereo not drawn) the result was A: 5.229%; B: -5.742%.
For CCOCCN1CCN(Cc2cccc(C(=O)N(C)C)c2)CC1 the result was A: 10.48%; B: -16.07%.
For CC(C)(C)C(=O)NCCNCc1ccc(Cl)c2cccnc12 the result was A: 14.65%; B: -2.334%.
For N#Cc1cccc(OCCN2CCCC(c3noc(C4CC4)n3)C2)c1 (stereo not drawn) the result was A: 9.03%; B: -10.38%.
For Cc1cnn(CC2CCCCN2C(=O)c2csc(C)n2)c1 (stereo not drawn) the result was A: 14.61%; B: -3.543%.

From ChEMBL document CHEMBL3988442, “University of Dundee, Small-Polar-MMV Screening Library” (2021).